Measurements taken from article PMC6009935 (Journal of Enzyme Inhibition and Medicinal Chemistry, 2017).

Target: T1, KOR (Cavia porcellus, UniProt P41144)
T1 construct: b: performed in guinea pig whole brain membrane homogenates; from tissue; host or cells: guinea pig (LAL/HA/BR strain) whole brain membrane homogenate
Assay: Radioligand competition binding with [3H]HS665
Parameters: species or system guinea pig
Procedure: Tris-HCl, EGTA, NaCl, MgCl2 x 6H2O, GDP, the GTP analogue GTPγS, were purchased from Sigma-Aldrich (Budapest, Hungary). Fatty acid free bovine serum albumin (BSA) was purchased from Serva (Heidelberg, Germany). Naloxone was kindly provided by the company Endo Laboratories DuPont de Nemours (Wilmington, DE, USA). HS665 was provided by Schmidhammer’s group (University of Innsbruck, Austria). […]
purchased from Tocris Bioscience (Bristol, UK).
DMSO. All compounds were stored in 1 mM stock solution at -20 °C. The radiolabelled GTP analogue, [35S]GTPγS (specific activity: 1000 Ci/mmol) were purchased from Hartmann Analytic (Braunschweig, Germany). [3H]DAMGO (specific activity: 38.8 Ci/mmol),12 [3H]IleDelt II (specific activity: 19,6 Ci/mmol), [3H]WIN55,212-2 (specific activity: 13,1 Ci/mmol) and [3H]HS665 (specific activity: 36.62 Ci/mmol),3 were radiolabeled by the Laboratory of Chemical Biology group in BRC (Szeged, Hungary).
For membrane homogenate preparations male and female Wistar rats (250-300 g body weight) and male guinea pigs (~700 g body weight, LAL/HA/BR strain) were used. Rats were housed in the local animal house of BRC (Szeged, Hungary), while guinea pigs were housed in LAB-ÁLL Bt.
(Budapest, Hungary). […]
binding was determined in the absence of unlabeled compounds. […]

C[C@@H](NC(=O)[C@@H](N)Cc1ccc(O)cc1)C(=O)NCC(=O)N[C@@H](Cc1ccccc1)C(N)=O [Compound 10, Tyr-D-Ala-Gly-Phe-NH2, reference compound]
IC50: 575 nM | KOR binding affinity in words: modest affinity
